Test results from US20180148487A1.
No constants are given. Whether binding was seen depends on the method and setting. Some entries that bind do so weakly or less than the wild type.

Protein sequences, listed by entry. Tags and fused reporters are not part of them. Lines headed by an entry give the natural chain unless they say otherwise; changes in a name come on top.
UniProt O00206: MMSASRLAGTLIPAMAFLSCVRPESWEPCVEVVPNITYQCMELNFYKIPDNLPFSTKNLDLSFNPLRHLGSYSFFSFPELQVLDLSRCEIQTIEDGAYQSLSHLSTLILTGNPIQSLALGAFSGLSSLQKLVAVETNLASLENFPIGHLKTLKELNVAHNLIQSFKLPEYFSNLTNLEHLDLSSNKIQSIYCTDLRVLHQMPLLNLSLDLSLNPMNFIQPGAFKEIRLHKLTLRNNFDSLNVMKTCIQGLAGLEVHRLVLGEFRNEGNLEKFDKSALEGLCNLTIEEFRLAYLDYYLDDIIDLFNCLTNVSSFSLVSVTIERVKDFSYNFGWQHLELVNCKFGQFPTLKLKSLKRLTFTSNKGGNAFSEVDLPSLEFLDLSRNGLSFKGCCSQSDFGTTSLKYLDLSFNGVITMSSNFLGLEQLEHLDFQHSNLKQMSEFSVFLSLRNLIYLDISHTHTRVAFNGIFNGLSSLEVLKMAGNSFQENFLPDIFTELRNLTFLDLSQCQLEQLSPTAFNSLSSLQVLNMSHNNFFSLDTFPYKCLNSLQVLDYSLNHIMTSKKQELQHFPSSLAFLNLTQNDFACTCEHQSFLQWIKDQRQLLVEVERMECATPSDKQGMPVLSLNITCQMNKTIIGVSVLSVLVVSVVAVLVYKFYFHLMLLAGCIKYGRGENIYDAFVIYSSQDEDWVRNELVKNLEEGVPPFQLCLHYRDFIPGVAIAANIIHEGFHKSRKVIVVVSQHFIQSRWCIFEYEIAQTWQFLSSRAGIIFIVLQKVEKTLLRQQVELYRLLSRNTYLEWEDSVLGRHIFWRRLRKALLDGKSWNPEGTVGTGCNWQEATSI
UniProt Q9Y6Y9: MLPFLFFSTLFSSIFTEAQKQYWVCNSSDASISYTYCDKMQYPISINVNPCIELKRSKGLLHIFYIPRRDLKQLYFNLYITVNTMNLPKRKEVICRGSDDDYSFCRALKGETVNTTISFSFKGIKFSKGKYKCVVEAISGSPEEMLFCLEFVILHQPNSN

biological target: T1, recombinant human TLR4/MD2 composite (human) (UniProt O00206+Q9Y6Y9); assay: phage display biopanning and phage ELISA on TLR4/MD2

Row | binding | Binder
1 | binds | ASANKNLLFKIRYSTARGGS [TAP1]
2 | binds | AMALDCFRWGWRMWCSSG [TAP2]
3 | binds | AMAYEIRCWWRWCYTSSG [TAP3]

biological target: T1, recombinant human TLR4/MD2 composite (human); assay: phage ELISA of selected clones on plates coated with TLR4/MD2 (anti-M13-HRP, A450)

Row | binding | Binder
4 | binds | ASANKNLLFKIRYSTARGGS [TAP1]
5 | binds | AMALDCFRWGWRMWCSSG [TAP2]
6 | binds | AMAYEIRCWWRWCYTSSG [TAP3]
